The target in this test is T1, Lsd1 (yeast two-hybrid fusion) (S. pombe), Q9Y802.
T1 chain: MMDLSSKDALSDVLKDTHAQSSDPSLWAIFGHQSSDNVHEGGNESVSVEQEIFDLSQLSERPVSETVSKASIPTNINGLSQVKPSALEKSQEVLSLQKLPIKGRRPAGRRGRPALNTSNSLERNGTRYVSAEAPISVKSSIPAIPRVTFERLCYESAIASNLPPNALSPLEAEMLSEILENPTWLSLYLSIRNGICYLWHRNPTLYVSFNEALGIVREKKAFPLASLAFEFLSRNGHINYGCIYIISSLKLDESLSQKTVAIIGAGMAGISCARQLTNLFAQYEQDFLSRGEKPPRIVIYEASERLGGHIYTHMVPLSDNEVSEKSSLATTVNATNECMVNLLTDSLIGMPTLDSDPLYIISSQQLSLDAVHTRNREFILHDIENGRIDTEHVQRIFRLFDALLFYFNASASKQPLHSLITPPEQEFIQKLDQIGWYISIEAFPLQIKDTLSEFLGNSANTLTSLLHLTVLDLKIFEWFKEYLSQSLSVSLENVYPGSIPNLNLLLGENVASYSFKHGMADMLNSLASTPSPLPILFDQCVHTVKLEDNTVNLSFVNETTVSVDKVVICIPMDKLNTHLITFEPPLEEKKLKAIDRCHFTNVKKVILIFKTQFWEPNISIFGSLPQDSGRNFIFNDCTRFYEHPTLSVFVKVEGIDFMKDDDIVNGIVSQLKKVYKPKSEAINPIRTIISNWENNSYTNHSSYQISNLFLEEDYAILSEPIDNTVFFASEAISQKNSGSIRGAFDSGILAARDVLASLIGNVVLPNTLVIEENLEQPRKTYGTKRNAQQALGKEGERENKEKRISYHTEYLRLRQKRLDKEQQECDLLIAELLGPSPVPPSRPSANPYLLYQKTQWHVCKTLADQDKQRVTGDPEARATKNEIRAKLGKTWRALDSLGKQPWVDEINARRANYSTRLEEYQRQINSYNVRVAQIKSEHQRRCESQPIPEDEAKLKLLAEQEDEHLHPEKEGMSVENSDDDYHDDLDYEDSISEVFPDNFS
Briefly: two-hybrid; Matchmaker Gold system; bait fused to Gal4-BD (pGBKT7, Y2H Gold cells), prey fused to Gal4-AD (pGADT7, Y187 cells), mated; reporters ADE2 (-Ade -Leu -Trp) and MEL1 (-Leu -Trp +X-α-gal). The settings on record: remark: other sources report otherwise.

For one molecule, binding results are on record in publication PMC10795994.

No constants are given. Whether binding was seen depends on the method and setting. Tags and fused reporters may be left off the sequences shown.

B1: Lsd2 (yeast two-hybrid fusion), Q10135 1-1235 (enzyme)
chain: MNTSENDPDGHYDFPEMTEHHSDRASSYANANNVNSTQPQLVSSEQALLAILGGGLQSITPNSVNQNAYSRSTYRTDGGLNSQPVSSLNNQWGNYNPAFLPSRYDSSFHPYTISQAANQPFPQHLLGNSNAGVAQQSGMRTIGLPPTVGSSFPQQKSSTYENFFDANSPSSQQFPSTYPSRSQNPLSSSGDGSTAIHAGPIQHQNSNAFSNYPYPLDASHLSSQQLLSMYRDQVSHGVTPSTFRNHESFMPTQLVSATELSKSVDNAVLPIPPTTAPAVVSPPASSFPLMSSAATSGNISSPALFDSELGARPEGSVAIEPSRVLLQWSSQSSSHTIPSAGASIPTSSLKSFFEHAAEAARKCNLDPRALESFEQHMLSDRLHDPVVLFHYFQIRNSICWLWIKNPTHAISRVEAQGVCVDRCLFQLASLAYEFLVRYGYINYGCLSFDSSFTNETNTGTTSSSASKQKTIAVVGAGLTGLICARQLTGLFSQYSSSFLSKNELPPKVIILEAKERTGGRIYSRALPVSHTSATQINHHTSNSNSISSNSTSLNPKDVTDPSHIPSAIDLGFQFLFSPMDDILLNLLNKQLGIEVTEMTGSDLVYDETDTKVLDMVEVKKLNILWEKLLEYVSVCFFINVEESVRISWISQFQLFIDEMFPDHLSKSLSLNASHEFSFKKTMLILIDEVSSYAKLGNSQKKFLIWCFKVAELDDTLYPLNTVDTDFSKDILIPKVARRGLSQLPWALQSYPSPLNIHYEKFVSKVTIENDKCTLDCKDNSSYEVDQVVIACSPSHFSSNIEFSPGLPNFVTENIKSIDFKPGKKVILRYAAAFWRKNIRSFGIIPKSLSQEMNNDENDGKSCFVLRIWNMLPETGVPILVADINPQMTSSSSNETSHLIQELHSLIVDHFQNDSNSSADLLDAWVTNWSRNGVYDGLNSYPNFANDKQQYEKRFRQSQLSYNLGRLHIAGDYIFSCVGCRTLQRSFLSGLSVCTGIIDSLAPISLTIPIIGETSRKELDQFLRNSKVNNFDPNAEAQRHLSYQARYRLKKQERLDEHKEEQEQLVTELLGYLPEPPSKPNANPFLLYQKMQWHVCRALADEDKRRLTGDSTAKATINETRAKLGKTWRQLDDLGKKPWIDEIAAQREAYAGKILRYQRLTKEYEMRAEQIRNDYAAKCQDEPIPDDEARLFMQAQREEEQRKQTQDDNISKSREASDEEYHDDGSSDSGYNGTRY
Take B1: the binding result is “no binding”.
